From PubChem BioAssay AID2685 (National Center for Advancing Translational Sciences (NCATS), 2010)
The list shows a part of the results. Shown are side measurements of this screen, not its main read-out; they come without a call. Most of these compounds were active or inconclusive in the main read-out, so they are no random draw. Words in brackets tell the shape of the fitted curve; partial curves, single points and poor fits give uncertain potencies.

Assay: qHTS Assay for Lipid Storage Modulators in Drosophila S3 Cells;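 for cell number change: cells counted by Cell Tracker Red CMTPX staining in the red channel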
Details: BODIPY lipid droplet fluorescence, 18-24 h; for cell number change: measured here: cell count max response, cells fed with added oleic acid
Method in brief: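 Drosophila S3 cells loaded with oleic acid (400 uM, as added) and compounds at several concentrations; lipid droplets imaged by 488-nm laser-scanning cytometry, 500–530 nm intensity and object ratio to cell channel. Percent activity normalized to 20 uM Triacsin C.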

[1] = measured here: lipid fluorescence (Fed channel) AC50, cells fed with added oleic acid
[2] = measured here: cell number channel AC50, cells fed with added oleic acid

| Structure (SMILES) | cell number change [%] | AC50 [1] | AC50 [2] |
| --- | --- | --- | --- |
| O=C(CN1C(=O)COc2ccccc21)NCC1CCCO1 (stereo unspecified) | 6.41 | – | – |
| O=C(NC1CCCN(Cc2ccc(Cl)cc2)C1)c1c(F)ccc(F)c1F (stereo unspecified) | 8.14 | 29.1 µM [rising, single point] | – |
| O=[N+]([O-])c1ccc(-c2nc(NCC3CCCO3)c3ccccc3n2)cc1 (stereo unspecified) | 21 | 0.461 µM [rising, full curve] | – |
| COC(=O)C1(C)Nc2ccccc2C(=O)N1c1ccccc1OC (stereo unspecified) | 33.4 | 20.6 µM [rising, single point] | 29.1 µM [rising, single point] |
| C#CCOCCOCCOCCNc1nc(N2CCN(C(=O)CCCCCCCCCCNC(=O)[C@@H](CCC(=O)O)n3cc(CCCCCN)nn3)CC2)nc(N2CCN(C(=O)CCCCCCCCCCNC(=O)[C@H]([C@@H](C)CC)n3cc(CCCCCN)nn3)CC2)n1 | -50.9 | 0.103 µM [falling, full curve, poor fit] | 0.116 µM [falling, full curve, poor fit] |
| CCc1ccc(OC(=O)Cc2ccc(OC)c(S(=O)(=O)N3CCOCC3)c2)cc1 | -60.2 | – | 29.1 µM [falling, single point] |
| Cc1cc(OCCCCCNCCO)cc(C)c1Cl | 7.1 | – | – |
| COc1cc(/C=N/NC(=O)C2CCN(CC(O)COCc3ccccc3)CC2)cc(OC)c1OC (stereo unspecified) | -48 | 18.4 µM [falling, partial curve] | 25.9 µM [falling, partial curve, poor fit] |
| O=C(O)CSc1c(-c2ccccc2)[nH]c2ccccc12 | -8.08 | 6.51 µM [rising, single point] | – |
| COc1cc(CN(C)CC2CCCN(CCc3ccccc3F)C2)cc(Cl)c1OC (stereo unspecified) | 15.4 | 23.1 µM [rising, single point] | – |
| O=C(CN(c1ccc(F)cc1)S(=O)(=O)c1ccc2c(c1)OCCO2)Nc1ccccc1 | 122 | 6.51 µM [rising, single point] | 6.51 µM [rising, full curve] |
| CC(NC1c2ccccc2-c2ccccc21)c1ccccc1 (stereo unspecified) | 33.2 | 29.1 µM [rising, single point] | – |
| CN(C)c1ncc(S(=O)(=O)c2ccccc2)c(-c2ccccc2Cl)n1 | -13.4 | 20.6 µM [falling, single point] | – |
| CCc1c(C(=O)N2CCN(c3ccccc3F)CC2)[nH]c(C)c1C(C)=O | – | – | 3.26 µM [rising, single point] |
| CCO[C@H]1OC(C(=O)NC2CC2)=C[C@@H](C2CCCCC2)[C@@H]1CCCO | 4.58 | 6.51 µM [rising, single point] | – |

4 entries from above, comma-delimited:
Structure (SMILES),cell number change [%],AC50 [1],AC50 [2]
O=C(CN1C(=O)COc2ccccc21)NCC1CCCO1 (stereo unspecified),6.41,–,–
O=C(NC1CCCN(Cc2ccc(Cl)cc2)C1)c1c(F)ccc(F)c1F (stereo unspecified),8.14,"29.1 µM [rising, single point]",–
Cc1cc(OCCCCCNCCO)cc(C)c1Cl,7.1,–,–
O=C(O)CSc1c(-c2ccccc2)[nH]c2ccccc12,-8.08,"6.51 µM [rising, single point]",–
